Assay results published in patent US9687480B2, “Chiral 1-(4-methylphenylmethyl)-5-oxo-{N-[(3-t-butoxycarbonyl-aminomethyl)]-piperidin-1-yl)-pyrrolidine as inhibitors of collagen induced platelet activation and adhesion” (Council of Scientific & Industrial Research, priority 2011, dated 2017).
Some of these results come from one statement about several compounds together.

Tested on: mice
Assay: Collagen-epinephrine induced pulmonary thromboembolism in mice
Type: in vivo
Settings: aspirin 170 μM/kg, clopidogrel 70 μM/kg
Text: To assess the antithrombotic efficacy of Compounds, mice were divided into vehicle, aspirin and Compounds treated groups, and each group included ten animals. […] Results have been reported as percentage protection, which represents protection against collagen and epinephrine induced thrombosis and expressed as: Percent Protection=(1-([…]-number of animals paralyzed/dead in test compound-treated group; Pcontrol-number of animals paralyzed/dead in vehicle treated group. Collagen Epinephrine Induced Pulmonary Thromboembolism (FIG. 1): […]

CC(=O)Oc1ccccc1C(=O)O [aspirin, reference compound]
duration of antithrombotic efficacy of standard drugs: up to 5 hours
